We go through 1 compound from paper PMC4858680, “A platinum-based hybrid drug design approach to circumvent acquired resistance to molecular targeted tyrosine kinase inhibitors” (Scientific Reports, 2016).

Where two headings read alike, the source gives them in different places.

Holding throughout (assay type): cell-based
For one experiment, the system named is HEK293 Mock transfected. Put plainly: Anticancer activity in mock transfected HEK293. Conditions: Homo sapiens, Bcr-Abl negative. The source says:
(§1) A panel of NSCLC cell lines harboring different EGFR mutations were purchased from American Type Culture Collection (ATCC; Manassas, VA, USA). They include H292 (bearing wild type EGFR), HCC827 (bearing EGFR sensitizing E746_A750 deletion) and H1975 (bearing the resistance causing EGFR T790M secondary mutation). The leukemic cell line K562 (harboring wild type Bcr Abl) and RPMI8226 (no Bcr Abl expression) were generous gift from Dr. Susan Bates (National Cancer Institute, NIH, Bethesda, MD, USA). […]. The HEK293T cells (from ATCC) were stably transfected with the wild type Bcr Abl or its E255K mutant. H292, HCC827, H1975, RPMI8226 cells were maintained in RPMI1640 medium supplemented with 10% fetal bovine serum, 100 units/mL streptomycin sulfate, and 100 units/mL penicillin G sulfate, and incubated at 37 °C in 5% CO2. K562, K562 Ima1.0, HEK293T stable transfected cell lines were grown in DMEM medium supplemented with 10% fetal bovine serum, 100 units/mL streptomycin sulfate, 100 units/mL penicillin G sulfate.

A further experiment has as its system K562. The experiment is described as follows: Anticancer activity (cytotoxicity) in CML cell line. Particulars: Homo sapiens.
Source text: as §1

The subject of another experiment is K562 Ima1.0. Put plainly: Anticancer activity in imatinib-selected resistant K562 subline. Conditions: Homo sapiens, K562, read-out: Anticancer activity (IC50) K562 Imatinib selected (K562 Ima1.0); Bcr-Abl amplification.

With `Cc1ccc(NC(=O)c2ccc(CN3CCN(C)CC3)cc2)cc1Nc1nccc(-c2cccnc2)n1` [Imatinib, reference compound], the IC50 in the experiment with HEK293 Mock transfected worked out at 11600 ± 2190 nM; in the experiment on K562 (CML cell line, Bcr-Abl positive, Table 1, read-out: Anticancer activity (IC50) K562), 150 ± 20 nM; in the experiment on K562 (Table 2, read-out: Anticancer activity (IC50) K562 Sensitive parental), 150 ± 20 nM; in the experiment with K562 Ima1.0, 2080 ± 480 nM.
